According to EPA's CvTdb concentration-time database:

Experiments:
[1] = tested on: Rat; assay: concentration in blood after dosing; conditions: 0.125 h; dosed: Benzophenone; 5 mg/kg; oral; Female; F344
[2] = tested on: Rat; assay: concentration in blood after dosing; conditions: 5 min; dosed: Benzophenone; 10 mg/kg; oral; Male; F344
[3] = tested on: Rat; assay: concentration in blood after dosing; conditions: 0.125 h; dosed: Benzophenone; 10 mg/kg; oral; Male; F344
[4] = tested on: Rat; assay: concentration in blood after dosing; conditions: 0.5 h; dosed: Benzophenone; 5 mg/kg; oral; Male; F344
[5] = tested on: Rat; assay: concentration in blood after dosing; conditions: 5 min; dosed: Benzophenone; 5 mg/kg; oral; Female; F344
[6] = tested on: Rat; assay: concentration in blood after dosing; conditions: 0.25 h; dosed: Benzophenone; 10 mg/kg; oral; Female; F344
[7] = tested on: Rat; assay: concentration in blood after dosing; conditions: 5 min; dosed: Benzophenone; 5 mg/kg; oral; Female; F344; remark: listed apart in the source
[8] = tested on: Mouse; assay: concentration in plasma after dosing; conditions: 3 h; dosed: Benzophenone; 15 mg/kg; iv; Female; B6C3F1
[9] = tested on: Mouse; assay: concentration in plasma after dosing; conditions: 10 min; dosed: Benzophenone; 30 mg/kg; oral; Female; B6C3F1
[10] = tested on: Rat; assay: concentration in plasma after dosing; conditions: dosed: Benzophenone, 5 mg/kg, oral, Female, F344
[11] = tested on: Mouse; assay: concentration in plasma after dosing; conditions: 5 min; dosed: Benzophenone; 30 mg/kg; oral; Male; B6C3F1
[12] = tested on: Mouse; assay: concentration in plasma after dosing; conditions: 0.25 h; dosed: Benzophenone; 60 mg/kg; oral; Female; B6C3F1
[13] = tested on: Mouse; assay: concentration in plasma after dosing; conditions: 6 h; dosed: Benzophenone; 60 mg/kg; oral; Female; B6C3F1
[14] = tested on: Rat; assay: concentration in plasma after dosing; conditions: dosed: Benzophenone, 5 mg/kg, oral, Female, F344; remark: listed apart in the source
[15] = tested on: Mouse; assay: concentration in plasma after dosing; conditions: 7 min; dosed: Benzophenone; 15 mg/kg; iv; Female; B6C3F1
[16] = tested on: Mouse; assay: concentration in plasma after dosing; conditions: 1.5 h; dosed: Benzophenone; 15 mg/kg; oral; Male; B6C3F1
[17] = tested on: Mouse; assay: concentration in plasma after dosing; conditions: 0.25 h; dosed: Benzophenone; 15 mg/kg; oral; Male; B6C3F1
[18] = tested on: Mouse; assay: concentration in plasma after dosing; conditions: 0.5 h; dosed: Benzophenone; 30 mg/kg; oral; Female; B6C3F1
[19] = tested on: Rat; assay: concentration in plasma after dosing; conditions: 16 h; dosed: Benzophenone; 5 mg/kg; oral; Female; F344
[20] = tested on: Mouse; assay: concentration in plasma after dosing; conditions: 0.25 h; dosed: Benzophenone; 15 mg/kg; iv; Male; B6C3F1
[21] = tested on: Mouse; assay: concentration in plasma after dosing; conditions: 0.5 h; dosed: Benzophenone; 15 mg/kg; oral; Female; B6C3F1
[22] = tested on: Mouse; assay: concentration in plasma after dosing; conditions: 7 min; dosed: Benzophenone; 15 mg/kg; iv; Male; B6C3F1
[23] = tested on: Mouse; assay: concentration in plasma after dosing; conditions: 0.25 h; dosed: Benzophenone; 60 mg/kg; oral; Male; B6C3F1
[24] = tested on: Mouse; assay: concentration in plasma after dosing; conditions: 0.125 h; dosed: Benzophenone; 60 mg/kg; oral; Female; B6C3F1
[25] = tested on: Mouse; assay: concentration in plasma after dosing; conditions: 0.25 h; dosed: Benzophenone; 15 mg/kg; oral; Male; B6C3F1; remark: listed apart in the source
[26] = tested on: Mouse; assay: concentration in plasma after dosing; conditions: 8 h; dosed: Benzophenone; 30 mg/kg; oral; Male; B6C3F1
[27] = tested on: Mouse; assay: concentration in plasma after dosing; conditions: 2 h; dosed: Benzophenone; 60 mg/kg; oral; Female; B6C3F1
[28] = tested on: Mouse; assay: concentration in plasma after dosing; conditions: 1 h; dosed: Benzophenone; 30 mg/kg; oral; Female; B6C3F1
[29] = tested on: Mouse; assay: concentration in plasma after dosing; conditions: 0.5 h; dosed: Benzophenone; 15 mg/kg; iv; Female; B6C3F1
[30] = tested on: Rat; assay: concentration in plasma after dosing; conditions: dosed: Benzophenone, 10 mg/kg, oral, Female, F344
[31] = tested on: Mouse; assay: concentration in plasma after dosing; conditions: 1.5 h; dosed: Benzophenone; 15 mg/kg; iv; Male; B6C3F1
[32] = tested on: Mouse; assay: concentration in plasma after dosing; conditions: 5 min; dosed: Benzophenone; 60 mg/kg; oral; Female; B6C3F1
[33] = tested on: Mouse; assay: concentration in plasma after dosing; conditions: 2.5 min; dosed: Benzophenone; 15 mg/kg; oral; Male; B6C3F1
[34] = tested on: Rat; assay: concentration in plasma after dosing; conditions: dosed: Benzophenone, 10 mg/kg, oral, Male, F344
[35] = tested on: Mouse; assay: concentration in plasma after dosing; conditions: 1.25 h; dosed: Benzophenone; 15 mg/kg; iv; Male; B6C3F1
[36] = tested on: Mouse; assay: concentration in plasma after dosing; conditions: 5 min; dosed: Benzophenone; 60 mg/kg; oral; Male; B6C3F1
[37] = tested on: Mouse; assay: concentration in plasma after dosing; conditions: 2 h; dosed: Benzophenone; 15 mg/kg; oral; Male; B6C3F1
[38] = tested on: Mouse; assay: concentration in plasma after dosing; conditions: 1 h; dosed: Benzophenone; 60 mg/kg; oral; Female; B6C3F1
[39] = tested on: Mouse; assay: concentration in plasma after dosing; conditions: 0.125 h; dosed: Benzophenone; 60 mg/kg; oral; Male; B6C3F1
[40] = tested on: Mouse; assay: concentration in plasma after dosing; conditions: 0.25 h; dosed: Benzophenone; 60 mg/kg; oral; Female; B6C3F1; remark: listed apart in the source
[41] = tested on: Rat; assay: concentration in plasma after dosing; conditions: dosed: Benzophenone, 5 mg/kg, oral, Male, F344
[42] = tested on: Rat; assay: concentration in plasma after dosing; conditions: dosed: Benzophenone, 10 mg/kg, oral, Male, F344; remark: listed apart in the source
[43] = tested on: Mouse; assay: concentration in plasma after dosing; conditions: 2.5 min; dosed: Benzophenone; 15 mg/kg; oral; Male; B6C3F1; remark: listed apart in the source

Structure (SMILES): O=C(c1ccccc1)c1ccccc1 [Benzophenone]
- concentration in blood [1]: 323 ng/mL
- concentration in blood [2]: 879 ng/mL
- concentration in blood [3]: 580 ng/mL
- concentration in blood [4]: 406 ng/mL
- concentration in blood [5]: 778 ng/mL
- concentration in blood [6]: 1150 ng/mL
- concentration in blood [7]: 549 ng/mL
- concentration in plasma [8]: 154 ng/mL
- concentration in plasma [9]: 604 ng/mL
- concentration in plasma ([10]; 10 min): 155 ng/mL
- concentration in plasma ([10]; 6 h): 71.1 ng/mL
- concentration in plasma [11]: 1500 ng/mL
- concentration in plasma [12]: 31100 ng/mL
- concentration in plasma [13]: 104 ng/mL
- concentration in plasma ([14]; 10 min): 228 ng/mL
- concentration in plasma ([14]; 6 h): 71.5 ng/mL
- concentration in plasma [15]: 2920 ng/mL
- concentration in plasma [16]: 69.3 ng/mL
- concentration in plasma [17]: 469 ng/mL
- concentration in plasma [18]: 603 ng/mL
- concentration in plasma [19]: 17.6 ng/mL
- concentration in plasma [20]: 2870 ng/mL
- concentration in plasma [21]: 887 ng/mL
- concentration in plasma [22]: 3630 ng/mL
- concentration in plasma [23]: 2430 ng/mL
- concentration in plasma [24]: 1580 ng/mL
- concentration in plasma [25]: 413 ng/mL
- concentration in plasma [26]: 13.3 ng/mL
- concentration in plasma [27]: 358 ng/mL
- concentration in plasma [28]: 367 ng/mL
- concentration in plasma [29]: 1490 ng/mL
- concentration in plasma ([30]; 10 min): 383 ng/mL
- concentration in plasma ([30]; 6 h): 152 ng/mL
- concentration in plasma [31]: 180 ng/mL
- concentration in plasma [32]: 2830 ng/mL
- concentration in plasma [33]: 255 ng/mL
- concentration in plasma ([34]; 5 min): 257 ng/mL
- concentration in plasma ([34]; 2 h): 296 ng/mL
- concentration in plasma [35]: 351 ng/mL
- concentration in plasma [36]: 5330 ng/mL
- concentration in plasma [37]: 49.9 ng/mL
- concentration in plasma [38]: 663 ng/mL
- concentration in plasma [39]: 3400 ng/mL
- concentration in plasma [40]: 3610 ng/mL
- concentration in plasma ([41]; 0.25 h): 210 ng/mL
- concentration in plasma ([41]; 24 h): 15 ng/mL
- concentration in plasma ([42]; 5 min): 508 ng/mL
- concentration in plasma ([42]; 2 h): 290 ng/mL
- concentration in plasma [43]: 261 ng/mL
